Literature values as cited in patent publication EP2361081B1, “MULTI PORTION INTRA-ORAL DOSAGE FORM AND USE THEREOF” (McNeil AB, priority 2008, dated 2010).

Conditions: pKa value lying in interval 8 - 9,6; taken from Handbook of Chemistry and Physics, 85th edition

Compound: NCCC[C@H](N)C(=O)O [Ornithine]
- pKa value (in interval 8 - 9,6): 8,78
